# Assay: Differential scanning calorimetry with phospholipid bilayers
# Assay type: physicochemical
# Conditions: for reduction in the DPPC main transition temperature compared to pure DPPC: highest compound/lipid molar ratio (0.12); for impact on the DPPC main transition temperature (in words): molar ratios 0.06-0.12
SMILES,reduction in the DPPC main transition temperature compared to pure DPPC [°C],impact on the DPPC main transition temperature (in words)
COc1ccc(C(=O)C2=C(O)c3ccccc3S(=O)(=O)N2CCCN2CCN(c3ncccn3)CC2)cc1 [BS24],4.425,–
O=C(C1=C(O)c2ccccc2S(=O)(=O)N1CCCN1CCN(c2ccccn2)CC1)c1ccc(F)cc1 [BS26],–,smallest impact on the transition temperature
O=C(C1=C(O)c2ccccc2S(=O)(=O)N1CCCN1CCN(c2ncccn2)CC1)c1ccc(F)cc1 [BS27],2,smallest impact on the transition temperature

# Reference: article PMC11678778, “Anti-Inflammatory Properties of Novel 1,2-Benzothiazine Derivatives and Their Interaction with Phospholipid Model Membranes” (Membranes, 2024)
